The list shows a part of the results, in another mix than the full data. Calls are pooled over several reports, among them a noisy single-well screen. The list shows a part of the results. The list shows a part of the results.
Experiments:
Settings in all cases: stereoisomer not certain
OR2W1 = tested on: T1, OR2W1
T1 sequence (whole entry): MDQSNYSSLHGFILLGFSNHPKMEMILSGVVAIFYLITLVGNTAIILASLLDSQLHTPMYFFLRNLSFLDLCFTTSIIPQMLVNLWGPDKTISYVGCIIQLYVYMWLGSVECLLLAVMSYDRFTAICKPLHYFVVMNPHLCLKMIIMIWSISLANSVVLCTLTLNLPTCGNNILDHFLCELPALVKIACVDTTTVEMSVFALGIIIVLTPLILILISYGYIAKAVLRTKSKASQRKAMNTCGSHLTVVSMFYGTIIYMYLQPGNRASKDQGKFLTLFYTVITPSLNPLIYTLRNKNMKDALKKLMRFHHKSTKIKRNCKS
How it was run: (§1)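 Each receptor–molecule pair is labelled responsive or non-responsive (inactive) according to whether the original authors judged the measured signal statistically different from baseline. The data were taken from the main text and supplementary material of published papers and checked for typos and inconsistencies. Assay methods differed by source, with transient luciferase assays in mammalian cell lines being common.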

OR2W3 = tested on: T2, OR2W3
T2 sequence (whole entry): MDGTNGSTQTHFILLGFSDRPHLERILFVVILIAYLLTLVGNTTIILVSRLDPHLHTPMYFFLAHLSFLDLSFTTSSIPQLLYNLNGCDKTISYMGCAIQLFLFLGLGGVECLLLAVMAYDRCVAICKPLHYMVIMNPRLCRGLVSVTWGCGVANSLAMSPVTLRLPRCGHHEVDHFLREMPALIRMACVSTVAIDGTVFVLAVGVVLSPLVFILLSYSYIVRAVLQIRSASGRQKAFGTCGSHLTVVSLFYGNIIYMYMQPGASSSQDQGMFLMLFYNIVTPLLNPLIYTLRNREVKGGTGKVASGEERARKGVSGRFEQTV
How it was run: as §1

OR2W5P (Homo sapiens) = target: T3, OR2W5P (Homo sapiens) (UniProt A6NFC9)
T3 sequence (whole entry): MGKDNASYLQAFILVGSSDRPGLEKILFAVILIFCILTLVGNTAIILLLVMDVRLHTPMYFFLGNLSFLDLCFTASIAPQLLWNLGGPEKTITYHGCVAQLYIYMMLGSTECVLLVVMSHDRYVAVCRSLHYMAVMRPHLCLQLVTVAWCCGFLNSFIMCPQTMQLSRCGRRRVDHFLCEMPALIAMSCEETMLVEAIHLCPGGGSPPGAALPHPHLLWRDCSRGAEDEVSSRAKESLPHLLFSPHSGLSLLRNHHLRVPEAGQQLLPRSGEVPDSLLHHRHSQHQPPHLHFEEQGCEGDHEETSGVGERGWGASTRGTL
How it was run: as §1

OR2Y1 = tested on: T4, OR2Y1
T4 sequence (whole entry): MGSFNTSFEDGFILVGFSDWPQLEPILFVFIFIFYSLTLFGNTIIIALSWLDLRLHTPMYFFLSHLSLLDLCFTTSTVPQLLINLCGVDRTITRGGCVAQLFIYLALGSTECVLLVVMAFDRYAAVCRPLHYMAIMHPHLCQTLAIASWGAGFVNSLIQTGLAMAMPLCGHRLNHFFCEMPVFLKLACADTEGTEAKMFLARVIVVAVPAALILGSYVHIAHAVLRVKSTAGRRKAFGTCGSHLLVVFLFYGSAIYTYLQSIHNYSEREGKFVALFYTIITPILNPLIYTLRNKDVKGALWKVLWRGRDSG
How it was run: as §1

OR2Z1 (Homo sapiens) = target: T5, OR2Z1 (Homo sapiens) (UniProt Q8NG97)
T5 sequence (whole entry): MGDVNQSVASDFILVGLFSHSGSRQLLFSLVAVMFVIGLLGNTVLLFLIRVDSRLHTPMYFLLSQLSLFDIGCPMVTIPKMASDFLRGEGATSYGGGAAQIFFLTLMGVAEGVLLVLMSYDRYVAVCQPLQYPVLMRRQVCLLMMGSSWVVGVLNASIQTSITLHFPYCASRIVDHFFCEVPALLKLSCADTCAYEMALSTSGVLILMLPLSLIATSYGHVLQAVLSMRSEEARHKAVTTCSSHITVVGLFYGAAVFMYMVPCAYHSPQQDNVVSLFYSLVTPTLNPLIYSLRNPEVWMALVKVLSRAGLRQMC
How it was run: as §1

OR3A1 (Homo sapiens) = target: T6, OR3A1 (Homo sapiens) (UniProt P47881)
T6 sequence (whole entry): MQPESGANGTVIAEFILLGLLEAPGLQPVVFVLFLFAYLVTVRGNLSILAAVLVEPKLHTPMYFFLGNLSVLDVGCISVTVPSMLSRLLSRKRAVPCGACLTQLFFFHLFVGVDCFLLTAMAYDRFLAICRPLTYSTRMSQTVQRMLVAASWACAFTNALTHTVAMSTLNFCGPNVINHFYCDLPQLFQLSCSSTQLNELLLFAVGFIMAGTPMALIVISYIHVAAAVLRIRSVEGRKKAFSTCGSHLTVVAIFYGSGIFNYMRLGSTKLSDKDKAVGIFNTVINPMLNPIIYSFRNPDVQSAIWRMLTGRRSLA
How it was run: as §1

OR3A2 (Homo sapiens) = target: T7, OR3A2 (Homo sapiens) (UniProt P47893)
T7 sequence (whole entry): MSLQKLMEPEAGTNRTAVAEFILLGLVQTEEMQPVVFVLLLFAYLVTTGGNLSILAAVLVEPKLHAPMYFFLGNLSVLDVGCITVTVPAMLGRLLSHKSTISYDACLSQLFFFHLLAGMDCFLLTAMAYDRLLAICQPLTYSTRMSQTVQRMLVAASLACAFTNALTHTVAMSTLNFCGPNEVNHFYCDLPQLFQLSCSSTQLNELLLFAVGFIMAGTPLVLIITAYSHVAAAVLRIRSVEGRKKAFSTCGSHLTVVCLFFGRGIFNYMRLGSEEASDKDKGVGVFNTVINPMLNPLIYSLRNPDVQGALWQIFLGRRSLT
How it was run: as §1

OR2W3 (Homo sapiens) = target: T8, OR2W3 (Homo sapiens) (UniProt Q7Z3T1)
T8 sequence (whole entry): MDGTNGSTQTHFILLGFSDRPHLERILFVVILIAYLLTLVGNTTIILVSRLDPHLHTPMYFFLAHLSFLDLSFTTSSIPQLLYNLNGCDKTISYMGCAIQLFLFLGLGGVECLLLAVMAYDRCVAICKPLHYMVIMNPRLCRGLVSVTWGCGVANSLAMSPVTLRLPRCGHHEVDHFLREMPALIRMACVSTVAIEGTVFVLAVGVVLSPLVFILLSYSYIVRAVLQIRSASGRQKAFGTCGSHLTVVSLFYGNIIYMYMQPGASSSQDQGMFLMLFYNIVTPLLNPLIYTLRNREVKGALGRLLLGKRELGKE
How it was run: as §1
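Further: active if original authors judged signal statistically different from baseline.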

| Structure (SMILES) | odorant receptor agonist call (OR2W1) | odorant receptor agonist call (OR2W3) | odorant receptor agonist call (OR2W5P (Homo sapiens)) | odorant receptor agonist call (OR2Y1) | odorant receptor agonist call (OR2Z1 (Homo sapiens)) | odorant receptor agonist call (OR3A1 (Homo sapiens)) | odorant receptor agonist call (OR3A2 (Homo sapiens)) | odorant receptor agonist call (OR2W3 (Homo sapiens)) |
| --- | --- | --- | --- | --- | --- | --- | --- | --- |
| CC(C)=CCCC(C)=CC=O | active | inactive | inactive | inactive | inactive | inactive | inactive |  |
| C=CCc1ccc(OC(C)=O)c(OC)c1 | active | inactive | inactive | inactive | inactive | inactive | inactive |  |
| CCCCCCCC=CC=O | inactive | active | inactive | inactive | inactive | inactive | inactive |  |
| CC12CCC(C1)C(C)(C)C2=O (centres undefined) | inactive | inactive | inactive | inactive | inactive | inactive | inactive |  |
| CC=Cc1ccc(O)c(OC)c1 | active | active | inactive | inactive | inactive | inactive | active |  |
| COc1cc(C)ccc1O | inactive | inactive | inactive | inactive | inactive | inactive | inactive |  |
| COc1ccccc1O | inactive | inactive | inactive | active | inactive | inactive | inactive |  |
| CCCCCCOC(=O)CCC | inactive | inactive | inactive | inactive | inactive | inactive | inactive |  |
| CC(=O)C(C)=O | inactive | inactive | inactive | inactive | inactive | inactive | inactive |  |
| CC(C)(O)CCCC1=CCC(C=O)CC1 (centres undefined) |  |  |  |  |  |  |  | inactive |
| C=CCSCC=C | inactive | inactive | inactive | inactive | inactive | inactive | inactive |  |
| CC(C)C=O | inactive | inactive | inactive | inactive | inactive | inactive | active |  |
| CC12C=CCC1C1CCC3=CC(=O)CCC3(C)C1CC2 (centres undefined) | inactive | inactive | inactive | active | inactive | inactive | active |  |
| CCCCCCCCCC=O | inactive | inactive | inactive | inactive | inactive | inactive | inactive |  |
| CC1COCc2cc3c(cc21)C(C)(C)C(C)C3(C)C (centres undefined) | active | inactive | active | active | inactive | active | inactive |  |
| CCCCCOC(C)=O | inactive | inactive | inactive | inactive | inactive | inactive | inactive |  |
| CCC1(O)C2(C)CCC(C2)C1(C)C (centres undefined) | inactive | inactive | inactive | inactive | inactive | inactive | inactive |  |
| O=C1CCCCC1 | inactive | inactive | inactive | inactive | inactive | inactive | inactive |  |
| COC(=O)c1ccccc1O | inactive | inactive | inactive | inactive | inactive | inactive | inactive |  |
| CC(C)(C)c1ccc(CCC=O)cc1 | inactive | inactive | inactive | inactive | inactive | inactive | inactive |  |
| CC(C)CCC(=O)O | inactive | inactive | inactive | inactive | inactive | inactive | inactive |  |
| CCCCCC(C)=O | inactive | inactive | inactive | inactive | inactive | inactive | inactive |  |
| O=CCc1ccccc1 | inactive | inactive | inactive | inactive | inactive | inactive | inactive |  |
| c1cnccn1 | inactive | inactive | inactive | inactive | inactive | inactive | inactive |  |
| C=CCc1ccc(O)c(OC)c1 |  |  |  |  |  |  |  | inactive |
| C=CCc1ccc(OC)c(OC)c1 | inactive | inactive | inactive | inactive | inactive | inactive | inactive |  |
| CC(=O)OC(C)(C)C1CC=C(C)CC1 (centres undefined) | inactive | inactive | inactive | inactive | inactive | inactive | inactive |  |
| CCCCCCCCOC(C)=O | inactive | inactive | inactive | inactive | inactive | inactive | inactive |  |

Two neighbouring compounds already listed, for reference:

| Structure (SMILES) | odorant receptor agonist call (OR2W1) | odorant receptor agonist call (OR2W3) | odorant receptor agonist call (OR2W5P (Homo sapiens)) | odorant receptor agonist call (OR2Y1) | odorant receptor agonist call (OR2Z1 (Homo sapiens)) | odorant receptor agonist call (OR3A1 (Homo sapiens)) | odorant receptor agonist call (OR3A2 (Homo sapiens)) | odorant receptor agonist call (OR2W3 (Homo sapiens)) |
| --- | --- | --- | --- | --- | --- | --- | --- | --- |
| O=CCc1ccccc1 | inactive | inactive | inactive | inactive | inactive | inactive | inactive |  |
| c1cnccn1 | inactive | inactive | inactive | inactive | inactive | inactive | inactive |  |

— the M2OR odorant receptor database
